{"sequences": {"note": "Chains of the proteins cited; added tags and fusions are not shown.", "UniProt O95292": "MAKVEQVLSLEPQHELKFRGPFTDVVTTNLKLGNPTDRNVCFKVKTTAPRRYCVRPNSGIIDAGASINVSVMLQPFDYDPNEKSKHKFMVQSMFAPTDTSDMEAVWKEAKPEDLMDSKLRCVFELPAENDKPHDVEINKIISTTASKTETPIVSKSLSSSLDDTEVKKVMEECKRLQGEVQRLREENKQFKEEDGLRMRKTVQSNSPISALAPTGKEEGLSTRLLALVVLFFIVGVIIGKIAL", "UniProt P23763": "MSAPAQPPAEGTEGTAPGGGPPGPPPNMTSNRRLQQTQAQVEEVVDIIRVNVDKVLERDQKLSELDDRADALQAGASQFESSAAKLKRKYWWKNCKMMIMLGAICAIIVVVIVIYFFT", "UniProt P63027": "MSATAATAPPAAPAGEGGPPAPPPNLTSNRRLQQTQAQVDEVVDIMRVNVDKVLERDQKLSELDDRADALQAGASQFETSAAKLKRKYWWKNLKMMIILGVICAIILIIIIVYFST"}, "source": "paper PMC6629115", "key": {"[1]": {"biological_target": "T1, GST-VAPA (^GSTVAPA) (human) (UniProt Q9P0L0)", "T1 sequence": "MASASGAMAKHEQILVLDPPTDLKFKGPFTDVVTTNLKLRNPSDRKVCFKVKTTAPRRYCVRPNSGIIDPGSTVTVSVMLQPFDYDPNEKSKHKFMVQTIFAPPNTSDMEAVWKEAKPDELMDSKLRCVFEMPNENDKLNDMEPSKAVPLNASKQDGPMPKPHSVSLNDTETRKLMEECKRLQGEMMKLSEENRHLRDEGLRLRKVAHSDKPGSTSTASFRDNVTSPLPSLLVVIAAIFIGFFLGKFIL", "assay": "pull-down; GST fusion proteins from BL21 lysate on MagneGST beads; lysate (RIPA buffer) of HeLa cells transfected with HCN2^EGFP; immunoblot with anti-GFP; only the target purified"}, "[2]": {"biological_target": "GST-VAPB (^GSTVAPB) (human) (UniProt O95292)", "assay": "pull-down; GST fusion proteins from BL21 lysate on MagneGST beads; in vitro translated untagged HCN2 (TnT T7); immunoblot with anti-HCN2; only the target purified"}, "[3]": {"biological_target": "GST-VAMP1 (^GSTVAMP1) (human) (UniProt P23763)", "assay": "pull-down; GST fusion proteins from BL21 lysate on MagneGST beads; in vitro translated untagged HCN2 (TnT T7); immunoblot with anti-HCN2; only the target purified"}, "[4]": {"biological_target": "GST-VAMP2 (^GSTVAMP2) (human) (UniProt P63027)", "assay": "pull-down; GST fusion proteins from BL21 lysate on MagneGST beads; in vitro translated untagged HCN2 (TnT T7); immunoblot with anti-HCN2; only the target purified"}, "[5]": {"biological_target": "T1, GST-VAPA (^GSTVAPA) (human)", "assay": "pull-down; GST fusion proteins from BL21 lysate on MagneGST beads; in vitro translated untagged HCN2 (TnT T7); immunoblot with anti-HCN2; only the target purified"}, "[6]": {"biological_target": "GST-VAPB (^GSTVAPB) (human) (UniProt O95292)", "assay": "pull-down; GST fusion proteins on MagneGST beads; rat brain protein lysates; HCN2 detected by immunoblot; only the target purified"}, "[7]": {"biological_target": "T1, GST-VAPA (^GSTVAPA) (human)", "assay": "pull-down; GST fusion proteins on MagneGST beads; rat brain protein lysates; HCN2 detected by immunoblot; only the target purified"}, "[8]": {"biological_target": "GST-VAPB (^GSTVAPB) (human) (UniProt O95292)", "assay": "pull-down; GST fusion proteins from BL21 lysate on MagneGST beads; lysate (RIPA buffer) of HeLa cells transfected with HCN2^EGFP; immunoblot with anti-GFP; only the target purified"}, "[9]": {"biological_target": "GST-VAMP1 (^GSTVAMP1) (human) (UniProt P23763)", "assay": "pull-down; GST fusion proteins from BL21 lysate on MagneGST beads; lysate (RIPA buffer) of HeLa cells transfected with HCN2^EGFP; immunoblot with anti-GFP; only the target purified"}, "[10]": {"biological_target": "GST-VAMP2 (^GSTVAMP2) (human) (UniProt P63027)", "assay": "pull-down; GST fusion proteins from BL21 lysate on MagneGST beads; lysate (RIPA buffer) of HeLa cells transfected with HCN2^EGFP; immunoblot with anti-GFP; only the target purified"}}, "note": "These are yes or no findings as the source states them, for the method shown. Binding seen in cells or lysates may run through a third protein. Some binding calls cover weakened binding; strength is not graded here. For some assays here: Where a sequence is shown, tags or fusion partners need not be part of it.", "data": [{"molecule": "endogenously expressed VAPB (HeLa) (from UniProt O95292 1-243)", "values": [{"measurement": "binding", "setting": "[1]", "result": "binds"}]}, {"molecule": "in vitro translated HCN2 (untagged) (protein, UniProt O88703 1-863) MDARGGGGRPGDSPGTTPAPGPPPPPPPPAPPQPQPPPAPPPNPTTPSHPESADEPGPRARLCSRDSACTPGAAKGGANGECGRGEPQCSPEGPARGPKVSFSCRGAASGPSAAEEAGSEEAGPAGEPRGSQASFLQRQFGALLQPGVNKFSLRMFGSQKAVEREQERVKSAGAWIIHPYSDFRFYWDFTMLLFMVGNLIIIPVGITFFKDETTAPWIVFNVVSDTFFLMDLVLNFRTGIVIEDNTEIILDPEKIKKKYLRTWFVVDFVSSIPVDYIFLIVEKGIDSEVYKTARALRIVRFTKILSLLRLLRLSRLIRYIHQWEEIFHMTYDLASAVMRICNLISMMLLLCHWDGCLQFLVPMLQDFPSDCWVSINNMVNHSWSELYSFALFKAMSHMLCIGYGRQAPESMTDIWLTMLSMIVGATCYAMFIGHATALIQSLDSSRRQYQEKYKQVEQYMSFHKLPADFRQKIHDYYEHRYQGKMFDEDSILGELNGPLREEIVNFNCRKLVASMPLFANADPNFVTAMLTKLKFEVFQPGDYIIREGTIGKKMYFIQHGVVSVLTKGNKEMKLSDGSYFGEICLLTRGRRTASVRADTYCRLYSLSVDNFNEVLEEYPMMRRAFETVAIDRLDRIGKKNSILLHKVQHDLSSGVFNNQENAIIQEIVKYDREMVQQAELGQRVGLFPPPPPPQVTSAIATLQQAVAMSFCPQVARPLVGPLALGSPRLVRRAPPGPLPPAASPGPPAASPPAAPSSPRAPRTSPYGVPGSPATRVGPALPARRLSRASRPLSASQPSLPHGVPAPSPAASARPASSSTPRLGPAPTARTAAPSPDRRDSASPGAASGLDPLDSARSRLSSNL", "values": [{"measurement": "binding", "setting": "[2]", "result": "binds"}, {"measurement": "binding", "setting": "[3]", "result": "binds"}, {"measurement": "binding", "setting": "[4]", "result": "binds"}, {"measurement": "binding", "setting": "[5]", "result": "binds"}]}, {"molecule": "HCN2 from rat brain protein lysates (protein, UniProt Q9JKA9 1-863) MDARGGGGRPGDSPGATPAPGPPPPPPPPAPPQPQPPPAPPPNPTTPSHPESADEPGPRSRLCSRDSSCTPGAAKGGANGECGRGEPQCSPEGPARGPKVSFSCRGAASGPAAAEEAGSEEAGPAGEPRGSQASFLQRQFGALLQPGVNKFSLRMFGSQKAVEREQERVKSAGAWIIHPYSDFRFYWDFTMLLFMVGNLIIIPVGITFFKDETTAPWIVFNVVSDTFFLMDLVLNFRTGIVIEDNTEIILDPEKIKKKYLRTWFVVDFVSSIPVDYIFLIVEKGIDSEVYKTARALRIVRFTKILSLLRLLRLSRLIRYIHQWEEIFHMTYDLASAVMRICNLISMMLLLCHWDGCLQFLVPMLQDFPSDCWVSINNMVNHSWSELYSFALFKAMSHMLCIGYGRQAPESMTDIWLTMLSMIVGATCYAMFIGHATALIQSLDSSRRQYQEKYKQVEQYMSFHKLPADFRQKIHDYYEHRYQGKMFDEDSILGELNGPLREEIVNFNCRKLVASMPLFANADPNFVTAMLTKLKFEVFQPGDYIIREGTIGKKMYFIQHGVVSVLTKGNKEMKLSDGSYFGEICLLTRGRRTASVRADTYCRLYSLSVDNFNEVLEEYPMMRRAFETVAIDRLDRIGKKNSILLHKVQHDLSSGVFNNQENAIIQEIVKYDREMVQQAELGQRVGLFPPPPPPQVTSAIATLQQAVAMSFCPQVARPLVGPLALGSPRLVRRAPPGPLPPAASPGPPAASPPAAPSSPRAPRTSPYGVPGSPATRVGPALPARRLSRASRPLSASQPSLPHGAPAPSPAASARPASSSTPRLGPAPTTRTAAPSPDRRDSASPGAASGLDPLDSARSRLSSNL", "values": [{"measurement": "binding", "setting": "[6]", "result": "binds"}, {"measurement": "binding", "setting": "[7]", "result": "binds"}]}, {"molecule": "HCN2^EGFP (protein, UniProt O88703 1-863) MDARGGGGRPGDSPGTTPAPGPPPPPPPPAPPQPQPPPAPPPNPTTPSHPESADEPGPRARLCSRDSACTPGAAKGGANGECGRGEPQCSPEGPARGPKVSFSCRGAASGPSAAEEAGSEEAGPAGEPRGSQASFLQRQFGALLQPGVNKFSLRMFGSQKAVEREQERVKSAGAWIIHPYSDFRFYWDFTMLLFMVGNLIIIPVGITFFKDETTAPWIVFNVVSDTFFLMDLVLNFRTGIVIEDNTEIILDPEKIKKKYLRTWFVVDFVSSIPVDYIFLIVEKGIDSEVYKTARALRIVRFTKILSLLRLLRLSRLIRYIHQWEEIFHMTYDLASAVMRICNLISMMLLLCHWDGCLQFLVPMLQDFPSDCWVSINNMVNHSWSELYSFALFKAMSHMLCIGYGRQAPESMTDIWLTMLSMIVGATCYAMFIGHATALIQSLDSSRRQYQEKYKQVEQYMSFHKLPADFRQKIHDYYEHRYQGKMFDEDSILGELNGPLREEIVNFNCRKLVASMPLFANADPNFVTAMLTKLKFEVFQPGDYIIREGTIGKKMYFIQHGVVSVLTKGNKEMKLSDGSYFGEICLLTRGRRTASVRADTYCRLYSLSVDNFNEVLEEYPMMRRAFETVAIDRLDRIGKKNSILLHKVQHDLSSGVFNNQENAIIQEIVKYDREMVQQAELGQRVGLFPPPPPPQVTSAIATLQQAVAMSFCPQVARPLVGPLALGSPRLVRRAPPGPLPPAASPGPPAASPPAAPSSPRAPRTSPYGVPGSPATRVGPALPARRLSRASRPLSASQPSLPHGVPAPSPAASARPASSSTPRLGPAPTARTAAPSPDRRDSASPGAASGLDPLDSARSRLSSNL", "values": [{"measurement": "binding", "setting": "[8]", "result": "binds"}, {"measurement": "binding", "setting": "[9]", "result": "binds"}, {"measurement": "binding", "setting": "[10]", "result": "binds"}, {"measurement": "binding", "setting": "[1]", "result": "binds"}]}]}
